Values from PubChem BioAssay AID1671195 (Yale University, 2021).
Here is one part, drawn at random, of about 22,000 reagents tested. About 1,510 of them (6.9%) count as active. 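Active includes knockdowns raising or lowering LDL uptake; positive z-scores mean more uptake, negative mean less.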 Unmarked entries are inactive.

Assay: 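Genes whose knockdown alters LDL uptake in liver cancer cells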 (primary screen)
System: human Huh7 hepatoma cells
Reagents: siRNA pool against human genes, 18 nM
Duration: about 2 to 2.5 days of knockdown, then 8 h LDL uptake
Treatment: DiI-labelled LDL at 30 µg/ml for 8 h, in lipoprotein-deficient serum medium
Measurement: 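Per-cell DiI-LDL intensity by automated imaging; well means scaled to the plate median and given as a robust z-score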
Direction: robust z-score: higher = more LDL uptake after knockdown
Call rule: 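a gene counts as active if at least two replicate z-scores exceed ±2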

ALG5 (ALG5 dolichyl-phosphate beta-glucosyltransferase) showed robust z-score, replicate 1 = -0.608; robust z-score, replicate 2 = -0.342; robust z-score, replicate 3 = -0.463.
For ILRUN, the entry reads robust z-score, replicate 1 = -0.91; robust z-score, replicate 2 = -0.419; robust z-score, replicate 3 = -0.928.
TNFRSF10A (TNF receptor superfamily member 10a) gave robust z-score, replicate 1 = -3.31; robust z-score, replicate 2 = 0.592; robust z-score, replicate 3 = 0.299.
Depletion of RNASEH2B (ribonuclease H2 subunit B) gave: robust z-score, replicate 1 = 0.562; robust z-score, replicate 2 = 0.657; robust z-score, replicate 3 = 0.981.
Depletion of SIN3B (SIN3 transcription regulator family member B) came out at: robust z-score, replicate 1 = 1.04; robust z-score, replicate 2 = 1.63; robust z-score, replicate 3 = -0.181.
CD164L2 (CD164 molecule like 2) showed robust z-score, replicate 1 = -0.236; robust z-score, replicate 2 = 0.335; robust z-score, replicate 3 = 0.437.

In a second layout: entries from further up.
Target gene	robust z-score, replicate 1	robust z-score, replicate 2	robust z-score, replicate 3
ALG5 (ALG5 dolichyl-phosphate beta-glucosyltransferase)	-0.608	-0.342	-0.463
ILRUN	-0.91	-0.419	-0.928

Further reagents:
MYOT (myotilin) scored robust z-score, replicate 1 = 1.61; robust z-score, replicate 2 = -0.337; robust z-score, replicate 3 = 0.00305.
CKAP2 (cytoskeleton associated protein 2) scored robust z-score, replicate 1 = 3.59 (active); robust z-score, replicate 2 = 4.48; robust z-score, replicate 3 = 1.76.
For C10orf126 (chromosome 10 open reading frame 126) the deposit lists robust z-score, replicate 1 = 1.41; robust z-score, replicate 2 = 0.433; robust z-score, replicate 3 = 0.394.
AMDHD1 (amidohydrolase domain containing 1) showed robust z-score, replicate 1 = -0.00288; robust z-score, replicate 2 = -0.0784; robust z-score, replicate 3 = 0.743.
For SRSF8 (serine and arginine rich splicing factor 8), the values are robust z-score, replicate 1 = 0.698; robust z-score, replicate 2 = 1.18; robust z-score, replicate 3 = 0.594.
FCRL4 (Fc receptor like 4) scored robust z-score, replicate 1 = 1.35; robust z-score, replicate 2 = 0.701; robust z-score, replicate 3 = 0.652.
